Data published in article PMC7032568.
Results are given in words; binding and its absence hold for the method and conditions named. Binding seen in cells or lysates may run through a third protein. A result given as binding can be weak or reduced; the word gives no strength. Sequences can lack the tags named with a protein.

Target: T1, YFP-tagged WDHD1 (human) (UniProt O75717)
T1 sequence: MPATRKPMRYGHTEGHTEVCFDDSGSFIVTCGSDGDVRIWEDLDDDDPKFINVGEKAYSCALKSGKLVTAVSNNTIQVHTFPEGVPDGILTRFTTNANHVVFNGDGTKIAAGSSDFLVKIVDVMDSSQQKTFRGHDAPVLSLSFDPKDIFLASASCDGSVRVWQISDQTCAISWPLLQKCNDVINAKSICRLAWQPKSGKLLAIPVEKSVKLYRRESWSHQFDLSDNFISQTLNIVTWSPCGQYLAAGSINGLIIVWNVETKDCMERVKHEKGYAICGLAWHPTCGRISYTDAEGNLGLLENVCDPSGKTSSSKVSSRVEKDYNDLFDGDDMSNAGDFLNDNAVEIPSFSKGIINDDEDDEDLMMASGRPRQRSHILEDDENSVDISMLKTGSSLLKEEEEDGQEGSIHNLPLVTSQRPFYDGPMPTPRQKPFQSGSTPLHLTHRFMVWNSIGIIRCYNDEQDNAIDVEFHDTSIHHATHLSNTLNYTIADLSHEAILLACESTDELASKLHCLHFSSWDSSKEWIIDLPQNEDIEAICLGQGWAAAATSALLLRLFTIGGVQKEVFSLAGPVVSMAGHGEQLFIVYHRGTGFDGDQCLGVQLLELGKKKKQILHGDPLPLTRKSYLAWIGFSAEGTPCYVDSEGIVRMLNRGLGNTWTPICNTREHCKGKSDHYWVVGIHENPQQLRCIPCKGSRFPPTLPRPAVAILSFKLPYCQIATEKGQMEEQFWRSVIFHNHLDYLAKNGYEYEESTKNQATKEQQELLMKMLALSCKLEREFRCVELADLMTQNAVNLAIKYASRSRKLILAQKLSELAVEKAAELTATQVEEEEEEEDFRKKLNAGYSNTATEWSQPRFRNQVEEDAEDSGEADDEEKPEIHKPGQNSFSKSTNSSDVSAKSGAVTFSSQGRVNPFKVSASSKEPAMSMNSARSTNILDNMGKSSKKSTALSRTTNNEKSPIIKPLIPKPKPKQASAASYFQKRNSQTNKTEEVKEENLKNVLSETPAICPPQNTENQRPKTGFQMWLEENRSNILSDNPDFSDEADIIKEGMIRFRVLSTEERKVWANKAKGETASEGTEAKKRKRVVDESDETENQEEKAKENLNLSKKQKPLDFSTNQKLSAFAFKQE
Experiment: co-IP; YFP-tagged WDHD1 captured on GFP-trap beads from whole cell lysate with full-length DDX11 or DDX11 fragments; Western blot

For “C-terminal part of DDX11 (human) (domain or fragment)”, the binding was “binds”.
